Reference: the supplement of paper PMC10849652
The other results are listed elsewhere or left out.

By UniProt entry, the sequences of proteins in these tests, tags left out. Where a name states a change or a piece, a line headed by the entry shows the natural chain unless it says otherwise.
UniProt Q969T4: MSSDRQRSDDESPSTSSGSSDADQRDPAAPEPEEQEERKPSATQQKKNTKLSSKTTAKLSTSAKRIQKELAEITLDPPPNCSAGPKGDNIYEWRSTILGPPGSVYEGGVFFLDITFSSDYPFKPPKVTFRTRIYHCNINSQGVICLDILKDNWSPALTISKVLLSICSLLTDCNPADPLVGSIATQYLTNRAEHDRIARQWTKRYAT
UniProt Q6NXR4: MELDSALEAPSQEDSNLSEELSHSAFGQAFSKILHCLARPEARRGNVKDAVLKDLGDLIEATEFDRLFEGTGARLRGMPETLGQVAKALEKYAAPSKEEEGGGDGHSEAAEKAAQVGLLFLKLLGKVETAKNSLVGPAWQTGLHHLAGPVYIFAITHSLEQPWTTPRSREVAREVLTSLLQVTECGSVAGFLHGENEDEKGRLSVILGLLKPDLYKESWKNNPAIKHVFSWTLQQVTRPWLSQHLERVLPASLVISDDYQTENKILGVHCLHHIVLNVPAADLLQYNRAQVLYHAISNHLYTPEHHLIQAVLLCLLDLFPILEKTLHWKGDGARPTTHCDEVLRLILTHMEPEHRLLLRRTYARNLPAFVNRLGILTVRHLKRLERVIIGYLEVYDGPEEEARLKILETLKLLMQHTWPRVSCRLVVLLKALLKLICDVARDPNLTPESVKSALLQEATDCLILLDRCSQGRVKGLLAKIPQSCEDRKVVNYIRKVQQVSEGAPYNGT
UniProt A6NNZ2, whole entry, looked up: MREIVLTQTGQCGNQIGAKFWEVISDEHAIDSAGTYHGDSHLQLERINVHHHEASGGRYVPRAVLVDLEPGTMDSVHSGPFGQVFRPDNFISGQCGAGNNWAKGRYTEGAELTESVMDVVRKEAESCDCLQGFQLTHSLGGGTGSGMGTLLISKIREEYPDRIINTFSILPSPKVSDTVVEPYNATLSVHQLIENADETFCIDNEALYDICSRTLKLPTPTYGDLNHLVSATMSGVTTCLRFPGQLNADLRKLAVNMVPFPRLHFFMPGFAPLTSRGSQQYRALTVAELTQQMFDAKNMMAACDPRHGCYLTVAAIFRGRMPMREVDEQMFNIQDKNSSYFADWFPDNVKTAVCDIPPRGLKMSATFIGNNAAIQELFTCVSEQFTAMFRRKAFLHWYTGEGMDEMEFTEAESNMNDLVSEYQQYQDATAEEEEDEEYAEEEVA
UniProt Q5R3I4: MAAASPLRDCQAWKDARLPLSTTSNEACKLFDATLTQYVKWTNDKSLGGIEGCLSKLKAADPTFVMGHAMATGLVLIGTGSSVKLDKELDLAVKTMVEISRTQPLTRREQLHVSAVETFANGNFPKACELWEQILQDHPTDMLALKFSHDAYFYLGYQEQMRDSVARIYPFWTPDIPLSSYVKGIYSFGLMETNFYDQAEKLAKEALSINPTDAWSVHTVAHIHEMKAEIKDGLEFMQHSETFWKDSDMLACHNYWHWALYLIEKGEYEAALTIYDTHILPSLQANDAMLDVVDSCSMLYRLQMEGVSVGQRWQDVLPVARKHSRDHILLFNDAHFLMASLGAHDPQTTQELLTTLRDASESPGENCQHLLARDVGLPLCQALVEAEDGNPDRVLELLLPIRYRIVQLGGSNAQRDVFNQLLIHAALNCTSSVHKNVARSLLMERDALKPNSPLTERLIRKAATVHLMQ
UniProt O60637: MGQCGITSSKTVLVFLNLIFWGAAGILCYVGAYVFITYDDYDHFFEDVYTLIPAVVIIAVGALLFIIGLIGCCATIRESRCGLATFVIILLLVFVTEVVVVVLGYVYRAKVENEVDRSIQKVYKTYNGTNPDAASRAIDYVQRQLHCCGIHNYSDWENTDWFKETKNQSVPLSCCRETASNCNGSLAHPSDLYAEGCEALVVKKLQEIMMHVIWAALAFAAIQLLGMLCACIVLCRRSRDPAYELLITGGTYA
UniProt Q96ET8: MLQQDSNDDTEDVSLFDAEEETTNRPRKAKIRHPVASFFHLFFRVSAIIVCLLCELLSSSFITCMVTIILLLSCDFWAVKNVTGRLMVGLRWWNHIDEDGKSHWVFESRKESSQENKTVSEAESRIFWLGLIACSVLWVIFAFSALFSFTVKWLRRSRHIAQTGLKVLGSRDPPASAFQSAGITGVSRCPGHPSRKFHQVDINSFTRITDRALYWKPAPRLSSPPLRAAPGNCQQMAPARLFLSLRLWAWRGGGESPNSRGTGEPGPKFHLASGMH
UniProt Q14157: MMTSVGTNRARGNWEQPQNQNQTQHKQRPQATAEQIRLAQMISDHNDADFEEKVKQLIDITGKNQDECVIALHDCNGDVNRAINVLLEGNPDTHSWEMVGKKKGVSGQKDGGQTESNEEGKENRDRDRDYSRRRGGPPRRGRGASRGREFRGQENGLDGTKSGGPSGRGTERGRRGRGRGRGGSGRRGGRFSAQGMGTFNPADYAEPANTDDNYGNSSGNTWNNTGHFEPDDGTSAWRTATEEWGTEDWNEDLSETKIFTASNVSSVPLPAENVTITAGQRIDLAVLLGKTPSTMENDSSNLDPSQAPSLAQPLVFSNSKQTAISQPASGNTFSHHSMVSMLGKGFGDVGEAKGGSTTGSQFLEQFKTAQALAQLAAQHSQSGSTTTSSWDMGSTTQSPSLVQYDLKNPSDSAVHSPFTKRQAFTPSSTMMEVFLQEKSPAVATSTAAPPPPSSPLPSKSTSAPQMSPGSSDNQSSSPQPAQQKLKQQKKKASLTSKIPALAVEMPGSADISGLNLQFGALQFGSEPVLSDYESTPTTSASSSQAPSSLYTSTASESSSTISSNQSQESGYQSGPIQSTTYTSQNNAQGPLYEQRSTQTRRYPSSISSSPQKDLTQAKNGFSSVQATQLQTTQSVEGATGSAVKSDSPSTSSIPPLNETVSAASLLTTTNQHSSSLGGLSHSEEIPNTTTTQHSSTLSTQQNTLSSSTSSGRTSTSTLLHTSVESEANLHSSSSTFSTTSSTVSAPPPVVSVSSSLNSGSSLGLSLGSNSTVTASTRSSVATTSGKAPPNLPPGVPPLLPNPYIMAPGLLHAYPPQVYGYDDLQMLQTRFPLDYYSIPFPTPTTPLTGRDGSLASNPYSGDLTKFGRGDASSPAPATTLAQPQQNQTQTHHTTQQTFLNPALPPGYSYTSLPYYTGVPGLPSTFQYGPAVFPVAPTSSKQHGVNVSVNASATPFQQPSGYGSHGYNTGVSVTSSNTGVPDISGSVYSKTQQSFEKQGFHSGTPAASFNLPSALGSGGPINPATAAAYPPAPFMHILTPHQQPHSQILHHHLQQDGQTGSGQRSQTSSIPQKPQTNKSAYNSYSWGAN
UniProt Q6PID6, whole entry, looked up: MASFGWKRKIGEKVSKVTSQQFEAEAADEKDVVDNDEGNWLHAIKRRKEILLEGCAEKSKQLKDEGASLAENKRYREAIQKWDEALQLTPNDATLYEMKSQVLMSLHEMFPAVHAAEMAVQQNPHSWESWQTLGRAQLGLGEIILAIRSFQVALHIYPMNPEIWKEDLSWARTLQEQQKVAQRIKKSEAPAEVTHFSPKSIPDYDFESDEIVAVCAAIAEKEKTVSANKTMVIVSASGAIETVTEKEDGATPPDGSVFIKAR
UniProt Q99757: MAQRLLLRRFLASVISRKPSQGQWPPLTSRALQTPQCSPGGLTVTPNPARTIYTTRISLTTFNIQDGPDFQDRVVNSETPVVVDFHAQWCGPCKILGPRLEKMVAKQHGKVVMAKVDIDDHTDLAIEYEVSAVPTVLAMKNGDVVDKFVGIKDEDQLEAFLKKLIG
UniProt Q9NZ09: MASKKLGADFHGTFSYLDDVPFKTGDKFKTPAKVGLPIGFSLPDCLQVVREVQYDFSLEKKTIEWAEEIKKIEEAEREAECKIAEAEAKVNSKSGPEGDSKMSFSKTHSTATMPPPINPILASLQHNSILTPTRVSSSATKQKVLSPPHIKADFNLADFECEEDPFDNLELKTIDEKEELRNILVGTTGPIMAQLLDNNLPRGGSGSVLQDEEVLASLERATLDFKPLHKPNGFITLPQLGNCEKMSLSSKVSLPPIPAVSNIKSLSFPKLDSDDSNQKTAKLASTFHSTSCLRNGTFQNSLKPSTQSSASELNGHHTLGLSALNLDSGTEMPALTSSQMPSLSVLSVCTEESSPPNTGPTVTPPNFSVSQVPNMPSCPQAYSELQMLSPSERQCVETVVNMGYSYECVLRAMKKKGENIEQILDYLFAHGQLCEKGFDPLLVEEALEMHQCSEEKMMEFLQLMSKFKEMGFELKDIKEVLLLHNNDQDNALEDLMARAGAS
UniProt Q86TV6: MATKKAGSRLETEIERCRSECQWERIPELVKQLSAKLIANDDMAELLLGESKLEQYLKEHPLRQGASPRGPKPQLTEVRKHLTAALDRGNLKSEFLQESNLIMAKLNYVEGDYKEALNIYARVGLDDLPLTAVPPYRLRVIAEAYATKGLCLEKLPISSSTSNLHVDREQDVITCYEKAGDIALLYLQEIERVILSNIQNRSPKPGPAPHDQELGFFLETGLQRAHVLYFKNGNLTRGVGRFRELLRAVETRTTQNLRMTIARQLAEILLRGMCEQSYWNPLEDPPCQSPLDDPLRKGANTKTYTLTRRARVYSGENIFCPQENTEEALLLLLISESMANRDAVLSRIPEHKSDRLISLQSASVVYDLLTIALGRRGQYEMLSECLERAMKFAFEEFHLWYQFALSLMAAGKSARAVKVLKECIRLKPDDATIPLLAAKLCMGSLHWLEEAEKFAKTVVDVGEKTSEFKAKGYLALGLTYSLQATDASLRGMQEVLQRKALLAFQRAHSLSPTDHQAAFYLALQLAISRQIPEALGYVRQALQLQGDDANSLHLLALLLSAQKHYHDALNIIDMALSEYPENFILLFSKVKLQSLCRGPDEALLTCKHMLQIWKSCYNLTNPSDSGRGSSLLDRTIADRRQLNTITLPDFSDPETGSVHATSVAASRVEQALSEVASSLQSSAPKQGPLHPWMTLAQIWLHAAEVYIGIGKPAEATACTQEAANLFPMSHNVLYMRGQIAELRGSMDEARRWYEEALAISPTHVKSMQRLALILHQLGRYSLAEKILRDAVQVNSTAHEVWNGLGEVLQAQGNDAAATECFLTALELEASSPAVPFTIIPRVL
UniProt Q16881, whole entry, looked up: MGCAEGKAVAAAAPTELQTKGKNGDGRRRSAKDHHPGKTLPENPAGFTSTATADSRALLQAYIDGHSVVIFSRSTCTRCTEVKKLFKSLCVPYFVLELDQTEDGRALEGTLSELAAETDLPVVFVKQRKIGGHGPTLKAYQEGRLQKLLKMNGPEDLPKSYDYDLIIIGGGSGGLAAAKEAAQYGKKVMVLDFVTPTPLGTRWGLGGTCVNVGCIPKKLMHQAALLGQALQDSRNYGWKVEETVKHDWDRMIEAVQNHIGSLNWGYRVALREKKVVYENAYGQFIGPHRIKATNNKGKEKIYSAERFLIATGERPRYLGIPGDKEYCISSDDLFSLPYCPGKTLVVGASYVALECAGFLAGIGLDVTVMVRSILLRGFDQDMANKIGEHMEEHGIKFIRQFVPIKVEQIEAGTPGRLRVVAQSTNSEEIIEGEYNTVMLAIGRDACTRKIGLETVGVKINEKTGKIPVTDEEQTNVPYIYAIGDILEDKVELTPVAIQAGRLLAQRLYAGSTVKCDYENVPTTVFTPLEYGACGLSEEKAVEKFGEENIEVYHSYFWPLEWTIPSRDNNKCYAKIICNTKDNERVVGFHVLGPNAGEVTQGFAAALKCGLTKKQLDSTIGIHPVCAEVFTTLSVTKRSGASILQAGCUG
UniProt Q99816: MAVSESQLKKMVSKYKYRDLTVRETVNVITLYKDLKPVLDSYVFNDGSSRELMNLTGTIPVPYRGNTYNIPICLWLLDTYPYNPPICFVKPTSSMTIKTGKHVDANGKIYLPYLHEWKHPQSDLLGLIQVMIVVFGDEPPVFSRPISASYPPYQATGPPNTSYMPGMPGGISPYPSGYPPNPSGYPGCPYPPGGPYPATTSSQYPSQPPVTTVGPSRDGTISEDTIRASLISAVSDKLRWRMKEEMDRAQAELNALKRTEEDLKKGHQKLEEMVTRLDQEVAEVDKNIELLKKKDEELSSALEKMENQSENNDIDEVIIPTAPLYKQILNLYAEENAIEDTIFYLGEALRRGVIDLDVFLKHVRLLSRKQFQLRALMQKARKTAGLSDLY
UniProt P51668: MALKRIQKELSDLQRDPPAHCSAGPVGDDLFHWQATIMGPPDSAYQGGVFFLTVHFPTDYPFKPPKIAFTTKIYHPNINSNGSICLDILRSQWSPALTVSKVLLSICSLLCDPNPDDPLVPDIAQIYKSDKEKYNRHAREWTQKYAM
UniProt Q16763: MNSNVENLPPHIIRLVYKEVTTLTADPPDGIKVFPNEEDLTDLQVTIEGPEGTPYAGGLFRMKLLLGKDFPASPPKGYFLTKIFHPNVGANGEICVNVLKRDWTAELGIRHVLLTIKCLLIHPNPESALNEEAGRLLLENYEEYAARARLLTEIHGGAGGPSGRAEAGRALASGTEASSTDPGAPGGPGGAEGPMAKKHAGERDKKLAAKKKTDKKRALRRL

Experiments:
Assay in all cases: log2 fold change, soluble protein after heating vs DMSO (PISA); higher = thermal stabilisation; K562 cells, 10 uM, 30 min; active = over 0.2 and 3.5 SD of the protein, either way, in both replicates (recomputed)
[1] = compound: CC[C@@H]1C(=O)N(C)c2cnc(Nc3ccc(C(=O)NC4CCN(C)CC4)cc3OC)nc2N1C1CCCC1
Outline: (§1)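 Soluble protein was quantified by TMTpro 16plex LC-MS/MS after channel sums were equalised. It was obtained as the supernatant after 21,000xg for 90 min from pooled aliquots of K562 cells (2×10^6 cells/mL, 10 μM compound, 30 min) heated for 3 min across 48°C-58°C and extracted in PBS with 0.5% NP-40 at 4°C. Thermal stability values are relative to control samples and come from duplicates. They are given as log2 fold changes.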

volasertib = compound: CC[C@@H]1C(=O)N(C)c2cnc(Nc3ccc(C(=O)N[C@H]4CC[C@H](N5CCN(CC6CC6)CC5)CC4)cc3OC)nc2N1C(C)C [volasertib]
Outline: as §1

[2] = compound: CC[C@H](C)N1C=C(C2=C(C=C(C=C21)C3=CN=C(C=C3)N4CCNCC4)C(=O)NCC5=C(C=C(NC5=O)C)C)C
Outline: as §1

epoxomicin = compound: CC[C@H](C)[C@@H](C(=O)N[C@@H]([C@@H](C)O)C(=O)N[C@@H](CC(C)C)C(=O)[C@]1(CO1)C)NC(=O)[C@H]([C@@H](C)CC)N(C)C(=O)C [epoxomicin]
Outline: as §1

[3] = compound: CCn1cc(-c2ccnc3[nH]c(-c4cccc(CN(C)C)c4)cc23)c(-c2ccc(NC(=O)N(C)C)cc2)n1
Outline: as §1

[4] = compound: CN(C)CC(=O)Nc1ccc2[nH]c(=O)c3ccccc3c2c1
Outline: as §1

[5] = compound: CN1C2=C(C3=C1C(=O)N(N=C3)CC4=CC(=CC=C4)N)SC(=C2)S(=O)C
Outline: as §1

[6] = compound: CN1CCC(CNc2ccc3ncc(-c4cccc(OC(F)(F)F)c4)n3n2)CC1
Outline: as §1

saracatinib = compound: CN1CCN(CCOc2cc(OC3CCOCC3)c3c(Nc4c(Cl)ccc5c4OCO5)ncnc3c2)CC1 [saracatinib]
Outline: as §1

sotrastaurin = compound: CN1CCN(c2nc(C3=C(c4c[nH]c5ccccc45)C(=O)NC3=O)c3ccccc3n2)CC1 [sotrastaurin]
Outline: as §1

Tubastatin A = compound: CN1CCc2c(c3ccccc3n2Cc2ccc(C(=O)NO)cc2)C1 [Tubastatin A]
Outline: as §1

[7] = compound: CNC(=O)C1=CC=CC=C1NC2=NC(=NC=C2Cl)NC3=C(C=C(C=C3)N4CCOCC4)OC
Outline: as §1

defactinib = compound: CNC(=O)c1ccc(Nc2ncc(C(F)(F)F)c(NCc3nccnc3N(C)S(C)(=O)=O)n2)cc1 [defactinib]
Outline: as §1

rucaparib = compound: CNCc1ccc(-c2[nH]c3cc(F)cc4c3c2CCNC4=O)cc1 [rucaparib]
Outline: as §1

[8] = compound: CNc1nc(-c2ccc3c(N)n[nH]c3c2)cc(N2C[C@@H](C(=O)NC3CCCCC3)CC[C@H]2C)n1
Outline: as §1

encorafenib = compound: COC(=O)N[C@@H](C)CNc1nccc(-c2cn(C(C)C)nc2-c2cc(Cl)cc(NS(C)(=O)=O)c2F)n1 [encorafenib]
Outline: as §1

[9] = compound: COC(=O)[C@H](CCSC)NC(=O)C1=C(C=C(C=C1)NC[C@H](CS)N)C2=CC=CC=C2
Outline: as §1

[10] = compound: CCn1c(C(=O)N(C2CC2)C2CC2)cc2c3c(ncn3C)c(Nc3cc(C)n(C)n3)nc21
Outline: as §1

rosiglitazone = compound: CN(CCOC1=CC=C(C=C1)C[C@H]2C(=O)NC(=O)S2)C3=CC=CC=N3 (racemic) [rosiglitazone]
Outline: as §1

alvocidib = compound: CN1CC[C@H](c2c(O)cc(O)c3c(=O)cc(-c4ccccc4Cl)oc23)[C@H](O)C1 [alvocidib]
Outline: as §1

Measured: log2 fold change

UBE2E3 (UniProt Q969T4)
inactive: [1] -0.124 | [2] -0.008 | epoxomicin -0.052 | [3] -0.11 | [4] 0.022 | [5] -0.005 | [6] -0.24 | saracatinib -0.03 | sotrastaurin -0.044 | Tubastatin A -0.074 | [7] 0.067 | defactinib -0.162 | rucaparib -0.014 | [8] -0.022 | encorafenib 0.017 | [9] -0.067
active: volasertib -0.377

TTI2 (UniProt Q6NXR4)
inactive: [1] -0.173 | [2] 0.021 | epoxomicin 0.085 | [4] 0.09 | [5] 0.03 | saracatinib -0.028 | sotrastaurin -0.187 | Tubastatin A -0.02 | [7] 0.051 | defactinib -0.073 | rucaparib 0.119 | [8] -0.036 | encorafenib 0.037 | [9] -0.038
active: volasertib -0.414

TUBB8B (UniProt A6NNZ2)
inactive: [1] -0.012 | [2] 0.027 | epoxomicin 0.018 | [10] -0.09 | [4] 0.085 | rosiglitazone 0.036 | sotrastaurin 0.029 | alvocidib 0.012 | Tubastatin A 0.065 | [7] -0.078 | defactinib -0.014 | rucaparib -0.062 | encorafenib 0.064 | [9] -0.001

TUBA4A (UniProt P68366)
inactive: [1] -0.024 | volasertib -0.01 | [2] 0.007 | epoxomicin 0.055 | [3] -0.064 | [4] -0.013 | [5] -0.168 | saracatinib 0.045 | sotrastaurin -0.012 | Tubastatin A -0.051 | [7] -0.039 | defactinib -0.024 | rucaparib -0.046 | [8] 0.038 | encorafenib -0.012 | [9] 0.013
active: [6] -0.261

TTC38 (UniProt Q5R3I4)
inactive: [1] 0.076 | volasertib 0.253 | [2] 0.041 | epoxomicin 0.012 | [3] -0.05 | [4] 0.136 | [5] -0.049 | [6] -0.039 | saracatinib -0.045 | sotrastaurin 0.086 | [7] -0.062 | defactinib -0.262 | rucaparib 0.435 | [8] 0.293 | encorafenib -0.02 | [9] -0.011
active: Tubastatin A 0.578

TSPAN3 (UniProt O60637)
inactive: [1] 0.006 | volasertib 0.116 | [2] -0.055 | [10] 0.048 | [4] -0.032 | rosiglitazone -0.027 | [5] 0.072 | saracatinib 0.04 | sotrastaurin 0.05 | alvocidib -0.033 | Tubastatin A -0.071 | [7] -0.001 | defactinib 0.047 | rucaparib -0.001 | [8] -0.004 | encorafenib 0.033 | [9] 0.081

Fetched one by one from above, 2 records:
UBE2E3 (UniProt Q969T4)
inactive: [1] -0.124 | [2] -0.008 | epoxomicin -0.052 | [3] -0.11 | [4] 0.022 | [5] -0.005 | [6] -0.24 | saracatinib -0.03 | sotrastaurin -0.044 | Tubastatin A -0.074 | [7] 0.067 | defactinib -0.162 | rucaparib -0.014 | [8] -0.022 | encorafenib 0.017 | [9] -0.067
active: volasertib -0.377

TTC38 (UniProt Q5R3I4)
inactive: [1] 0.076 | volasertib 0.253 | [2] 0.041 | epoxomicin 0.012 | [3] -0.05 | [4] 0.136 | [5] -0.049 | [6] -0.039 | saracatinib -0.045 | sotrastaurin 0.086 | [7] -0.062 | defactinib -0.262 | rucaparib 0.435 | [8] 0.293 | encorafenib -0.02 | [9] -0.011
active: Tubastatin A 0.578

Going on with the list.

TVP23C (UniProt Q96ET8)
inactive: [1] 0.097 | volasertib 0.068 | [3] -0.019 | [4] -0.025 | [5] 0 | [6] -0.033 | saracatinib 0.025 | Tubastatin A 0 | [7] 0.042 | defactinib 0.039 | rucaparib -0.205 | [8] 0.015 | encorafenib 0.129 | [9] 0.067

UBAP2L isoform 5 (UniProt Q14157)
inactive: [1] 0.005 | volasertib -0.023 | [2] -0.02 | epoxomicin -0.018 | [3] 0.004 | [4] -0.035 | [5] -0.039 | [6] 0.009 | saracatinib 0.017 | sotrastaurin 0.013 | Tubastatin A -0.006 | [7] -0.096 | defactinib 0.009 | rucaparib 0.018 | [8] -0.006 | encorafenib -0.018 | [9] 0.015

TTC33 (UniProt Q6PID6)
inactive: [1] 0.038 | volasertib -0.027 | epoxomicin 0.049 | [4] -0.075 | [5] -0.048 | [6] 0.138 | saracatinib -0.103 | sotrastaurin 0.009 | [7] 0.012 | defactinib 0.013 | rucaparib -0.008 | [8] -0.152 | encorafenib -0.014 | [9] 0.054
active: [3] -0.449

TXN2 (UniProt Q99757)
inactive: [1] -0.037 | volasertib 0.051 | [2] -0.029 | epoxomicin 0.082 | [3] -0.089 | [4] -0.096 | [5] 0.03 | [6] 0.083 | saracatinib 0.004 | sotrastaurin 0.04 | Tubastatin A 0.004 | [7] 0.17 | defactinib 0.031 | rucaparib -0.003 | [8] -0.034 | encorafenib 0.001 | [9] 0.068

UBAP2L (UniProt F8W726)
inactive: [1] 0.077 | volasertib -0.002 | [2] -0.094 | [3] 0.025 | [6] -0.027 | Tubastatin A -0.039 | [7] -0.05 | rucaparib -0.006 | encorafenib -0.021

UBAP1 isoform 4 (UniProt Q9NZ09)
inactive: [1] -0.012 | [2] 0 | epoxomicin 0.092 | [3] 0.006 | [4] -0.034 | [5] 0.023 | [6] -0.089 | saracatinib -0.023 | sotrastaurin -0.032 | Tubastatin A 0.007 | [7] -0.028 | defactinib -0.08 | rucaparib 0.089 | [8] -0.053 | encorafenib -0.05 | [9] 0.006
active: volasertib -0.545

UBE2K (UniProt D6RDM7)
inactive: [1] 0.113 | volasertib 0.042 | [2] -0.496 | epoxomicin -0.015 | [4] 0.023 | rosiglitazone 0.278 | [5] 0.33 | saracatinib -0.14 | sotrastaurin 0.032 | alvocidib 0.034 | Tubastatin A -0.064 | defactinib 0.098 | rucaparib -0.19 | [8] -0.196 | encorafenib -0.025 | [9] 0.083

UBA6
inactive: [1] -0.139 | volasertib -0.189 | [2] 0.057 | epoxomicin 0.029 | [3] -0.031 | [4] 0.033 | [5] 0 | [6] 0.001 | saracatinib -0.006 | sotrastaurin -0.125 | Tubastatin A -0.047 | [7] 0.041 | defactinib -0.089 | rucaparib 0.024 | [8] 0.011 | encorafenib 0.049 | [9] -0.032

TTC7B isoform 2 (UniProt Q86TV6)
inactive: [1] 0.07 | volasertib -0.067 | [2] 0.166 | [10] -0.102 | [3] -0.024 | [4] 0.182 | rosiglitazone 0.007 | [5] 0.033 | [6] 0.149 | saracatinib 0.103 | sotrastaurin -0.072 | alvocidib 0.055 | Tubastatin A 0.076 | [7] 0.029 | defactinib 0.108 | rucaparib 0.131 | [8] -0.056 | encorafenib -0.061 | [9] -0.17

TXNRD1 (UniProt Q16881)
inactive: [1] 0.004 | volasertib 0.05 | [2] 0.006 | epoxomicin 0.054 | [3] -0.049 | [4] -0.003 | [5] -0.096 | [6] -0.006 | saracatinib -0.012 | sotrastaurin 0.058 | Tubastatin A -0.001 | [7] 0.022 | defactinib -0.015 | rucaparib -0.113 | [8] 0.032 | encorafenib -0.033 | [9] -0.001

TXNRD1 isoform 7 (UniProt Q16881)
inactive: [1] 0.054 | volasertib -0.106 | epoxomicin 0.155 | [3] -0.501 | [4] -0.074 | [5] 0.101 | [6] -0.028 | saracatinib -0.202 | sotrastaurin 0.019 | [7] -0.364 | defactinib -0.194 | rucaparib 0.263 | [8] 0.065 | encorafenib -0.085 | [9] 0.062

TSG101 (UniProt Q99816)
active: volasertib -0.268
inactive: [1] -0.137 | [2] 0.036 | epoxomicin 0.065 | [3] -0.021 | [4] 0.002 | [5] -0.018 | [6] -0.124 | saracatinib -0.008 | sotrastaurin -0.047 | Tubastatin A 0 | [7] 0.011 | defactinib -0.12 | rucaparib -0.006 | [8] -0.044 | encorafenib -0.007 | [9] -0.032

UBE2D1 (UniProt P51668)
inactive: [1] -0.123 | [2] -0.024 | [3] -0.045 | [4] 0.017 | [5] -0.109 | [6] -0.095 | saracatinib 0.03 | sotrastaurin 0.056 | Tubastatin A -0.058 | [7] -0.035 | defactinib -0.016 | rucaparib 0.006 | [8] -0.105 | encorafenib 0.01 | [9] -0.047
active: volasertib -0.333

UBAP2L isoform 1 (UniProt Q14157)
inactive: [1] -0.026 | volasertib -0.417 | [2] 0.046 | epoxomicin -0.005 | [3] 0.026 | [4] -0.004 | [5] 0 | [6] -0.023 | saracatinib -0.001 | sotrastaurin 0.063 | Tubastatin A -0.016 | [7] 0.038 | defactinib -0.02 | rucaparib -0.017 | [8] -0.073 | encorafenib -0.014 | [9] -0.015

UBE2S (UniProt Q16763)
active: volasertib -0.214
inactive: [1] -0.025 | [2] 0.005 | epoxomicin 0.195 | [3] 0.015 | [4] 0.048 | [5] -0.048 | [6] 0.024 | saracatinib -0.001 | sotrastaurin -0.023 | Tubastatin A 0.2 | [7] -0.016 | defactinib -0.082 | rucaparib -0.051 | [8] -0.041 | encorafenib 0.022 | [9] -0.007
